Laboratory results: paper PMC5428413

By UniProt entry, the sequences of proteins in these tests, tags left out. Residues count along the entry.
UniProt P26618, residues 25-1089: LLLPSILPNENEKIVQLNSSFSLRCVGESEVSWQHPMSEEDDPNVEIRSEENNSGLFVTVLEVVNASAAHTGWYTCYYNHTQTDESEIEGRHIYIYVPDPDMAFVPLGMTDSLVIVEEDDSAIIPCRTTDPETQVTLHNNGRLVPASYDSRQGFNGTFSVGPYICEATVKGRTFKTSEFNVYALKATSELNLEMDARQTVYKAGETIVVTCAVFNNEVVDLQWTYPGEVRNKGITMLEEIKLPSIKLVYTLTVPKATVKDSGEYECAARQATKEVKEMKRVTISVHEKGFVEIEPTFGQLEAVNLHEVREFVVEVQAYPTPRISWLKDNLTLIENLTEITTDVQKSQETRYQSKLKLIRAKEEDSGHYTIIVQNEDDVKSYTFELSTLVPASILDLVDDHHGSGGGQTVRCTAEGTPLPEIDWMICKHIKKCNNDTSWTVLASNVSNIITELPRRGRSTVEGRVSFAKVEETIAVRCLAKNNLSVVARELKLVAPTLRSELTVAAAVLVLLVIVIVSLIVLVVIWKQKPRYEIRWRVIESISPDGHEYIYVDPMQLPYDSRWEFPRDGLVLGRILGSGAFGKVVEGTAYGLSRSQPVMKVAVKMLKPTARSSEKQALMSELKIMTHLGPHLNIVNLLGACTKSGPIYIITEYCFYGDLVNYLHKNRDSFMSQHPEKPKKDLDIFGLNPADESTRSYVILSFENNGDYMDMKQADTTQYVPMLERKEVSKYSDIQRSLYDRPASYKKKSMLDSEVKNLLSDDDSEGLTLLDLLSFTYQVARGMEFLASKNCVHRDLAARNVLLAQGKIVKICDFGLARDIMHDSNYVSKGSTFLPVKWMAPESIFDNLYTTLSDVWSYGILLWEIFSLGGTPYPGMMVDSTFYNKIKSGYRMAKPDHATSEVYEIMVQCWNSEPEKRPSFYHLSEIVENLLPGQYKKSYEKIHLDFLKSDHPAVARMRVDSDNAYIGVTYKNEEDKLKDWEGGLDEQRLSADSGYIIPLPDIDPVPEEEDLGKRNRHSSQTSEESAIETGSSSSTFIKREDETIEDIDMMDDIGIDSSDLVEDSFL

Assays:
[1] = biological target: T1, FLAG-tagged TMEFF2 (mouse) (UniProt Q9QYM9); assay: co-IP; FLAG-tagged bait co-expressed with PDGFA-HA in HEK293T for 48 h; lysis buffer 25 mM Tris pH 7.4, 150 mM NaCl, 1% NP40, 0.25% sodium deoxycholate, 1 mM EDTA; anti-FLAG magnetic beads overnight at 4 °C; eluted with 3xFlag peptide; blotted with anti-FLAG and anti-HA
T1 sequence: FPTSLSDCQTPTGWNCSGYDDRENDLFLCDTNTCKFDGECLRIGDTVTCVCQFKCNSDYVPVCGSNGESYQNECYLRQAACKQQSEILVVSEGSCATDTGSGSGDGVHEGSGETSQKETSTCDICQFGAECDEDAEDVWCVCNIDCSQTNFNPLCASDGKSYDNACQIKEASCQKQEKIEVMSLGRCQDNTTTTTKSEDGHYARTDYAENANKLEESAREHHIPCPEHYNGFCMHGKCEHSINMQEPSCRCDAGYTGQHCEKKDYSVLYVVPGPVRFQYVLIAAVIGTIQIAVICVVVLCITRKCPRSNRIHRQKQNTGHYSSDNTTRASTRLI

[2] = biological target: FLAG-tagged PDGFRA (mouse) (UniProt P26618); assay: as above

HA-tagged PDGFA (from UniProt P20033-2) (ligand)
binding [1]: binds weakly
binding [2]: binds

No constants are given. Whether binding was seen depends on the method and setting. In cells and extracts the contact can be indirect. A result given as binding can be weak or reduced; the word gives no strength. For some assays here: Where a sequence is shown, tags or fusion partners need not be part of it.
